These results are taken from article PMC9051519.

These are yes or no findings as the source states them, for the method shown. In cells and extracts the contact can be indirect. Here binding means that the protein was enriched with, or labelled near, the bait; the list need not be complete. Tags and fused reporters may be left off the sequences shown.

The labels stand for the following.
T1: FLAG-Cas1 fusion protein (Haloferax volcanii) (UniProt D4GQP0)
T1 sequence: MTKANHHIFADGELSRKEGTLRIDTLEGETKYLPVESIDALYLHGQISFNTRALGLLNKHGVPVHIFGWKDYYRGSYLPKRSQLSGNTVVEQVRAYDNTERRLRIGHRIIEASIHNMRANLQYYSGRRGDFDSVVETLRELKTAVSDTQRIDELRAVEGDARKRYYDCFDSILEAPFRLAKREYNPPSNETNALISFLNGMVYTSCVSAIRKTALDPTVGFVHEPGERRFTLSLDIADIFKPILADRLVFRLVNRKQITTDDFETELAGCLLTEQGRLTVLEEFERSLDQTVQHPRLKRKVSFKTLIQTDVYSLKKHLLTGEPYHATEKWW

B1: UvrABC system protein B (protein, UniProt D4GYM4 1-698)
chain: MSESGPLSADRPDADREFRVDAPFDPAGDQPEAIEALARGFREGADVQTLLGVTGSGKTNTVSWVVEEIQKPTLVLAHNKTLAAQLYEEFKGLFPDNAVEYFVSYYDYYQPEAYIEQTDTYIDKDMSINEEIDRLRHSATRSLLTRDDVIVVASVSAIYGLGDPKNYTDMSLRLEVGQGMDRDELLRALVDLNYERNDVDFRQGTFRVRGDTVEVFPMYGRYAVRIEFWGDEIDRMLKLDPLEGEVKSSEPAVLVHPAEHYSIPEEQLEGAISEIEELMEQRVKHFQRQGDLVAAQRIEERTTFDIEMLRETGHCSGIENYSVHLSDREPGDAPYTLLDYFPDDFLTVIDESHVTLPQIKGQYAGDKSRKDSLVENGFRLPTAYDNRPLTFEEFEETVGQTLFASATPGDYEREHSDQIVEQIVRPTHLVDPKVEVTEATGQVDDLMARIDERIDRDERVLVTTLTKRMAEDLTEYLEEAGVDVAYMHDETDTLERHELIRSLRLGDIDVLVGINLLREGLDIPEVSLVAILDADQQGFLRSETTLVQTMGRAARNVNGEVVLYADEMTDAMEAAISETQRRRRIQQEFNEEHGYTPTTIEKEVGETNLPGSKTDTRGVSGDEPADADEAVEQIAFLEDRMQEAADNLEFELAADIRDRIQNLRREFDVDALEDGVAPEYPDEHDGEADDGLTPPDEF
B2: DNA-directed RNA polymerase subunit A (protein, UniProt D4GZX6 1-976)
chain: MSMQTPKEIGSIQFGLMDPETYRDMSATKVITADTYDDDGYPIDMGLMDPRLGVIDPGLQCRTCGQHSGSCNGHFGHIELAAPVIHVGFTKLIRRLLRSTCRECGRLSLTDEEADEYRDKLGRTKELGDDWSDVMKSAVRQARKANRCPHCGSPQHDIKHEKPTTYYEVQNVLAGDYSERIAEAMQPDPDDEDDEGVDPVTLANETGLDAERVNQVLAGEFRPVGDDRKALEKALDLDLTEEDMNKLMPSDIRDWFEDVPDEDLVTLGIDPDRSRPEWMILTVLPVPPVTARPSITLDNGQRSEDDLTHKLVDIIRINQRFMENREAGAPQLIIEDLWELLQYHVTTFIDNEISGTPPARHRSGRPLKTLSQRLKGKEGRFRGSLSGKRVNFSARTVISPDPTLSLNEVGVPDRVASEMTQTMNVTERNVDEARQYVRNGPESHPGANYVRRPDGRRLKVTEKNCEELAEKVELGWEVNRHLVDGDIVIFNRQPSLHRMSIMAHEVVVMPYKTFRLNTVVCPPYNADFDGDEMNMHALQNEEARAEARVLMRVQEQILSPRFGENIIGAIQDHISGTYLLTHDNPEFVETQALDLLRATRVDTLPEPAGENEGGQPYWTGQQIFSELLPDDLNMEFTSKVGDTVSIEDGQLVQGTIDEDAVGAFGGEIVDALAKDYSKTRSRIFINEIASLAMRAIMHFGLSIGIDDESIPDEATAQVDEAIDAAYDKIQELIEIYEAGELESLPGRSVDETLEMKIMQRLGKARDSAGEIAEDHFEEDNPAVVMSKSGARASMLNLTQMAGCVGQQAVRGERINRGYEGRTLSHYQKGDLSAEAHGFVENSYRAGLTPREFFFHAMGGREGLVDTAVRTSKSGYLQRRLINALSELEAQYDGSVRDTSGTIVQFEFGEDGTSPVKVSSDDETPIDVENIADRILTSEFSSDEEKERFLGERAPPTNLSEHAEPRVDARAGVESDD
B3: Smc-like protein Sph2; homolog of Rad50 (protein, UniProt A0A8D3W5K5 1-649)
chain: MSSEQVSKSKVHLSVENIGGIDDLSTSFEPGVTVLAGRNATNRTSLLRSIMAAHGSDDVALKGDADEGSVELTIGDEAYTRTFERQGDTVISGGNPVLDDPDLADLFAFLLETNDARQAVARGDDLRDLIMRPVDVESINEQIESLQQEKRDIADELSTLSNLSDRLPQLERRRTKLEDQIEEKEDELAEKEQEVEEYDASVSERQEVESELESKLGDLRSKRRDINDVDRRIETEKQSLDALESEEAELEDDAEDLPEVAGGKIDEIESEISRLRTRRQEIQSTVNELQSVIQFNEEMLSGTSSDVVDALRDADDAGGSVTDQLLGDDQVVCWTCGSEVDKSEIEGTLERLRTLREEKLEDNRDHREQLSELEDEKSTYERRQRERDRIERRLSEIESERETRQERIEELKSDRSDLEAEIDSLEQTVDELESEEHGDLLDLHREANQLEYDLGRLRSDLEDVEDEIADIERKLDERDELEAAREDIEDELEELRTRIKRLESEAVEEFNTHMDDVLDVLEYDNLERIWIERTEKRVREGRRKVTKSVFDLHVIRTNEDGVSYEDSVAHLSESEREVTGLVFALAGYLIHDVYETVPFMVLDSLEAIDSNRISRLVDYFADYADYLTVALLEEDAQAVDSSYPRYSPA
B4: DNA double-strand break repair ATPase Rad50 (enzyme, UniProt D4GUK1 1-893)
chain: MRFTRIAIRNFKPYEDAELDLRDGVTVIHGVNGSGKSSLLEACFFALYGSKALAGTLEDVVTTGADDAEITLEFVHDGGEYRIDRRVRVSGDRATTAKCVLDGPEGTVEGARDVRRHVASLLRMDAEAFVNCAYVQQGEVNKLINATPSQRQDMIDDLLQLGKLETYRERAGNARLGVEDVLTKKRSVLEDVESQIEAKEDADLHATLNALESELDSLDEEISNYESQRDKAKSALDAAEATLDEHAEKRERLDEIESAIEDLTAKISADETKRDDLSERVRELDAAADELESDIDDALARADLDDASDEAIADAREALSARESELRDDLSEARTRAQAFETQAERLRERADDLESRAEEKREAAEVDAETAAEAERELESFRETRAELRSALDDAEARFEDAPVELGEAADLLEERREARSEARESLAETETELKNARERLAEAERLRDAGKCPECGQPVEGSPHVDAISEREAAVESLEADRESLESAVESRSAAVEAAEALVEVETRASSRRDRLDLVDERIADREETVESRREAAEEKREAAAELDSEAEEKREAATTQAERAEEVAETVDSLESDLDTLDDRRDRLDRVESLVDTRAEKIDARDRLREKRETLAEVNRERREHLRERRERRDELRETVDEEAVEGAKQRKKNAAAYLERVEDEVLPELREKRDDLQSRVGGVEAELEQLDDLRERRDHLAERVDALESVHDEVSTLESTYGDLRAELRQRNVEVLERMLNETFDLVYANDAYSRIRLDGEYGLTVFQKDGTALEPEQLSGGERALFNLSLRCAIYRLLAEGIDGAAPLPPLILDEPTVFLDGGHVSRLVDLVEDMQSRGVKQILIVSHDEDLVGAADDLVRVEKNPTTNRSTVERTDAPIVEGALADD
B5: DNA-directed RNA polymerase subunit B (protein, UniProt D4GZX4 1-521)
chain: MNRQARREVSRKYFSEERLAEHHFRSFNAFLERGMMDVVEEKATIETDIGDKEGEEPVYVELGGVRVETPRVREADGSEELLFPQEARLRNITYSAPVFMEMSIVRGGEEEEEVVVDTAETKVGRMPIMVGSSKCNIAELSDEDLVEIGEDPVDPGGYFIVNGSERVLMTSEDLAPNKILAEYDTKYGDEIQVAKTFSQRRGYRALVLCERNREGLLEVSFPSVSGSVNFVTLVRALGLESDEEIVHRVSDDPEIVKFMLENLEEAEVQTQEQAIEALGKRVAGGQGKNYQLKRANYVIDRYLLPHLHEEGAEEEEVRMNKAYYLCRMAEACFELALQRRDSDDKDHYANKRLKVSGDLMKDLFRTALNKLARDVKYQLERANMRNRNLTVNTVVRSDVLTERLEHPIATGNWVGGRSGVSQLVDRTDYMGVLSHLRRLRSPLSRSQPHFEARDLHATQWGRICPSETPEGPNCGLVKNFAQAMELSQNVEDEQSLKRELASMGVEGIPGIDSVDAAPADD
B6: repair helicase UvrD (enzyme, UniProt D4GRV6 1-616)
chain: MSESDVTVTRLFGGPGSGKTTALLDKVEEILEQDGVTIRDILVVSYTRAAAAEVRDRLAERLDINPRSLKGNVSTMHAKAYELLSLSRNDVVGESDKQEFCEDYGVEFEDEYGGAGRRTARSTTIGNKVIATSQWLQRTRRDVSDWYDVPFQWNVEEVRLPPEVDPNAQEGNKYTPTWPSDDDRIDIPEAIRAWRAYKGEHGLVGFADMLERVKQRALVPNVDYLVIDEFQDITTLQYDVYEEWKPHMRGVLIAGDDDQVVYAWQGADPNLLLDAERDNDEILPNSYRLPSNVLNVVNREIRHIDKRQEKDLKPRKEGGAVEAVESPSMLELARNVRYTVEKDEGTVMVLFRARYQMFQFIDEFLPSGIPFSTLTDQRMWTDRLTQYVRAVEALDAEEPVNGLEARRLADMLQDSAFGTNDRDDLFDAIDDRQEEVGVDDITNIEFTPKEIKNFAPFAPDSSSASDMVRKVTSFQRKSVNAYFGGGYEEMDPSRVRVGTIHSAKGREADHVFMATDLTEKVVEQMAASVSDEELEARGIEEFTATTSPVPLITDNERRVFYVGMSRARERLIVLENLVTGAPTLPISVLLHNEIREEPAQGLVDDAQELPAPEPEA
B7: AAA-type ATPase (CDC48 subfamily) (enzyme, UniProt D4GWM8 1-743)
chain: MNEVQLEVAKAYPNDSGRGIARLDPDTLLHLKLSPGDIIEIEGGKTTAAKVWRADRQDWNTDTVRIDGFTRQNADVGIGERVTIRKAEATKADKLVLAPPEEASVQFGSDAAGMVKRQILKRPVVERDIVPVMSSTNHPFMRSPGQAIPLIAVETKPEGVVLVTEDTDVELREEPISGFEKAGGGITYEDIGGLTNEIQRVREMVELPMKHPQIFKKLGIEPPQGVLLHGPPGTGKTLLARAVANETSASFFSIAGPEIISKYYGESEQQLREIFEDAKEESPSIIFIDELDSIAPKREDVTGEVERRVVAQLLTMMDGLEARGQVIVIAATNRVDSVDPALRRPGRFDREIEIGVPDEEGRKEILQIHTRGMPLSDDVDLDDLADDTHGFVGADIEALTKEAAMKALRRYLPEIDLDREDIPPSLIDRMVVKNDDFGGALGEVEPSAMREVLVEIPKVTWNDVGGLEGPKQKVQESVEWPLTTPEKFQRMGIEAPKGVLLYGPPGTGKTLIAKAVANETNANFISVRGPQLLSKWVGESEKAIRQTFRKARQVSPTIIFFDELDALAPARGNDMGNNVSERVVNQLLTELDGLEDAGNVMVIAATNRPDMIDPALIRSGRFDRLVLIGQPEEEGREQILDIHTQQSPLAPDVSLREIAEITDGYVGSDLESICREAAIEALREDSDAEEIEMRHFRKAMESVRPTITEELMRYYEDIQDQFKGGSREGLSPDTRDGGRIGFQ

The target in this assay is T1, FLAG-Cas1 fusion protein (Haloferax volcanii). Description: affinity purification with mass spectrometry; FLAG-Cas1 expressed in H. volcanii Δcas1; S100 lysate treated with DNase and RNase A, 150 mM NaCl; anti-FLAG M2 affinity gel overnight at 4°C, washed with 50 mM Tris/HCl pH 7.4, 150 mM NaCl, eluted with 3xFLAG peptide; gel filtration (Superdex 75 Increase), fractions with Cas1 at about 670 kDa analysed by MS; two FLAG-Cas1 purifications, one FLAG-only control. A general note: Size exclusion chromatography separates by hydrodynamic size, large species first.
Take B1: the binding entry was “binds”. With B2 the entry was “binds”; with B3, “binds”. The value for B4 was “binds”. With B5 the entry was “binds”. For the molecule B6, the binding entry was “binds”. The value for B7 was “binds”.
